According to US5753691A, “Agents for inhibiting the production of IL-1β and the release of TNFα” (Nisshin Flour Milling Co., Ltd., priority 1994, dated 1998):
Some of these results come from one statement about several compounds together.

Test system: THP-1 cells
Assay: Cytotoxicity in THP-1 cells (Alamar Blue)
Settings: concentration up to 50 μM; THP-1 cells 1×10^6 cells/ml, 24 h, then Alamar Blue 3 h, absorbance difference 570/600 nm

O=C(C=Cc1ccccc1)N1CCCC1=O [Compound 1]
cytotoxicity: no cytotoxicity was found

COc1ccccc1C=CC(=O)N1CCCC1=O [Compound 2]
cytotoxicity: no cytotoxicity was found

COc1cccc(C=CC(=O)N2CCCC2=O)c1 [Compound 3]
cytotoxicity: no cytotoxicity was found

COc1ccc(C=CC(=O)N2CCCC2=O)cc1 [Compound 4]
cytotoxicity: no cytotoxicity was found

COc1ccc(C=CC(=O)N2CCCC2=O)cc1OC [Compound 5]
cytotoxicity: no cytotoxicity was found

COc1cc(C=CC(=O)N2CCCC2=O)cc(OC)c1OC [Compound 6]
cytotoxicity: no cytotoxicity was found

O=C(C=Cc1ccccc1[N+](=O)[O-])N1CCCC1=O [Compound 7]
cytotoxicity: no cytotoxicity was found

O=C(C=Cc1cccc([N+](=O)[O-])c1)N1CCCC1=O [Compound 8]
cytotoxicity: no cytotoxicity was found

O=C(C=Cc1ccc([N+](=O)[O-])cc1)N1CCCC1=O [Compound 9]
cytotoxicity: no cytotoxicity was found

O=C(C=Cc1ccccn1)N1CCCC1=O [Compound 12]
cytotoxicity: no cytotoxicity was found

O=C(C=Cc1cccnc1)N1CCCC1=O [Compound 13]
cytotoxicity: no cytotoxicity was found

O=C(C=Cc1ccncc1)N1CCCC1=O [Compound 14]
cytotoxicity: no cytotoxicity was found
